Source: the supplement of paper PMC3334620
The full ranking holds about 33,000 sequences; the median of “E-score (-0.5 to 0.5)” is about -8e-05, and the highest 2% start at about 0.23. The list shows a part of the results.

target: T1, Nrg2 (UniProt P38082); assay: PBM E-score (8-mer binding enrichment) (E-score (-0.5 to 0.5)); higher = stronger / more preferred TF binding; settings: protein concentration: 100 nM; construct: GST-full length
T1 sequence: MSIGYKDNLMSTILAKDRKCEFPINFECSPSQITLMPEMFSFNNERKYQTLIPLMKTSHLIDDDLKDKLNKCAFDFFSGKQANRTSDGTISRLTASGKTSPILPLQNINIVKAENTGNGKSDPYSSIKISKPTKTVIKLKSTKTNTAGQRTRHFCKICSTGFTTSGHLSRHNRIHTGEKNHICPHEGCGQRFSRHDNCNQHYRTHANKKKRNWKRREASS
In short: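 The E-score, a modified Wilcoxon-Mann-Whitney statistic, was computed by the Universal PBM Analysis Suite for every ungapped eight-base word pooled with its reverse complement. Scans behind it were normalised with masliner after bound GST-tagged yeast transcription factors were detected with fluorescent anti-GST. The proteins, at about 100-200 nM, had been applied to universal all-10-mer Agilent arrays made double-stranded by primer extension.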

| Sequence | PBM E-score |
| --- | --- |
| CGGATTCC | 0.0163 |
| AGGTAACC | -0.00416 |
| ATCTTTGA | 0.0956 |
| GCCGACAA | 0.049 |
| AAGCCCGT | -0.153 |
| GTCTTGAA | -0.109 |
| AAGACTAG | -0.309 |
| CTTCAGCA | -0.106 |
| TAAAAACA | 0.168 |
| ACCCGATG | 0.114 |
| GCACAGCC | -0.12 |
| CCAAACGC | -0.0177 |
| TGGGTAAA | -0.169 |
| ACGTTGTG | 0.0485 |
| CGGCGACA | 0.0121 |
| AATGGGAG | 0.00219 |
| GACTCCGA | -0.0724 |
| ACGTCTCC | 0.0223 |
| GAGAAATC | 0.0887 |
| AGGTGGGA | -0.169 |
| AATAAACA | 0.0984 |
| ACCGCTGA | 0.0339 |
| GGCATATA | 0.126 |
| GTTCCAAA | 0.0625 |

| Sequence | PBM E-score |
| --- | --- |
| ACCTCGAC | -0.0808 |
| CTAGGGTA | 0.0209 |
| ATTCTATC | 0.0609 |
| AGGACACC | -0.0545 |
| AATAGCAG | -0.0779 |
| AATCGGTG | -0.0297 |
| GATCATGC | -0.00571 |
| CGGTTTAC | -0.142 |
| TTTAGAAA | -0.134 |
| CGATCTCC | -0.0956 |
| GCTCTATA | -0.184 |
| AGTCCTGA | -0.047 |
| AATGGACT | -0.00789 |
| CTGACTGA | -0.0542 |
| AAAGTGGG | 0.105 |
| AATTATAT | 0.138 |
| AGAACAAA | 0.208 |
| CGCGCGAG | 0.245 |
| CAGCTAGC | 0.025 |
| AATGGGAT | -0.12 |
| CACGAGAG | 0.0216 |
| CTAATCTC | -0.0439 |
| TCAGCTAA | -0.0154 |
| GACCTGAA | 0.0073 |

| Sequence | PBM E-score |
| --- | --- |
| CGCATGTC | -0.0691 |
| GATACATA | 0.246 |
| CGGAACCG | -0.162 |
| CGTAACCA | -0.157 |
| CCTTCCCC | -0.0629 |
| ACACCAGA | -0.0233 |
| CCAAGGGC | -0.0903 |
| AAACGTTA | -0.0287 |
| AAAATCCG | -0.0444 |
| ATACTATA | 0.0708 |
| AAAATCGA | 0.152 |
| GCGTCTGA | 0.0277 |
| CTGAGGCA | -0.167 |
| CAACTCAA | 0.0587 |
| AACGATAT | 0.175 |
| CGATGCGC | -0.0131 |
| CGTAAAAG | 0.0729 |
| CATTGAGC | -0.0461 |
| TAGTCAAA | 0.063 |
| TTACGGAA | -0.0316 |
| ACGGTCCT | -0.32 |
| CGAAGAGC | -0.0663 |
| CGATCTTA | -0.0263 |
| ATGCGCTA | -0.0498 |

Reprinted at random: 4 entries already listed.

| Sequence | PBM E-score |
| --- | --- |
| CATTGAGC | -0.0461 |
| CGTAAAAG | 0.0729 |
| ACACCAGA | -0.0233 |
| CGGAACCG | -0.162 |

(cont.)

| Sequence | PBM E-score |
| --- | --- |
| CCGCGTAA | -0.169 |
| CTTAAGAC | 0.0548 |
| GTTTGCCA | 0.0694 |
| AAACCCAT | 0.16 |
| ACGAGACG | -0.0134 |
| AACCGTGT | 0.164 |
| AGTGCCGG | -0.0411 |
| ATGATGGG | 0.0257 |
| GCGTCAAC | -0.174 |
| ATAGCAAG | 0.172 |
| AGCTTGAT | -0.0862 |
| CACTAAGC | -0.0808 |
| ACTGCACC | 0.0738 |
| CACGCAAG | -0.0359 |
| GTTAGTCA | -0.115 |
| CGGGGACA | 0.0777 |
| CAGTTCCG | -0.111 |
| ATAAGCGC | 0.126 |
| ATGAGTCC | 0.0174 |
| AAATTTGG | -0.137 |
| GCCAGTCC | -0.189 |
| AGAGCCAT | -0.0389 |
